Compound in this assay: Nc1nc2c(ncn2[C@@H]2O[C@H](COP(=O)(O)OP(=O)(O)OP(=O)(O)O)[C@@H](O)[C@H]2O)c(=O)[nH]1 [guanosine triphosphate]
Description: NP40-soluble protein abundance relative to vehicle (solubility fold change) (ratio); higher = more soluble protein in presence of GTP. The procedure: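 Solubility proteome profiling in Jurkat crude lysate. Lysate was treated with Mg-GTP (0.1-10 mM) for 10 min at room temperature and 3 min at 37 °C, then solubilised with 0.8% NP40 and benzonase, followed by ultracentrifugation. Proteins were quantified by TMT10 LC-MS/MS; the value is the NP40-soluble abundance relative to the NP40-processed vehicle, from 3 independent experiments.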

By UniProt entry, the sequences of proteins in these tests, tags left out. Where a name states a change or a piece, a line headed by the entry shows the natural chain unless it says otherwise.
UniProt O60239: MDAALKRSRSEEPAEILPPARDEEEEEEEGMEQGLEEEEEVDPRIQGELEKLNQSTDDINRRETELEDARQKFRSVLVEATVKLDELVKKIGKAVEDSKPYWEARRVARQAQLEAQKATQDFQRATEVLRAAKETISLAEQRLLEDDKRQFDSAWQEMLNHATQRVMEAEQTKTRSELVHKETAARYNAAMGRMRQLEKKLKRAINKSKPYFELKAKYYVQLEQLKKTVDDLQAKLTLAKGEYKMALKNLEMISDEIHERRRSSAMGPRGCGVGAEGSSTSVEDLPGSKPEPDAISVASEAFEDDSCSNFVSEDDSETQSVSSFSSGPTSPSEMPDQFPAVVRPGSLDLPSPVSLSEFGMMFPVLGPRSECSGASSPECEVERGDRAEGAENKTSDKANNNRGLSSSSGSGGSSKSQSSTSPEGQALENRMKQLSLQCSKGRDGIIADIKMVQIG
UniProt O95785: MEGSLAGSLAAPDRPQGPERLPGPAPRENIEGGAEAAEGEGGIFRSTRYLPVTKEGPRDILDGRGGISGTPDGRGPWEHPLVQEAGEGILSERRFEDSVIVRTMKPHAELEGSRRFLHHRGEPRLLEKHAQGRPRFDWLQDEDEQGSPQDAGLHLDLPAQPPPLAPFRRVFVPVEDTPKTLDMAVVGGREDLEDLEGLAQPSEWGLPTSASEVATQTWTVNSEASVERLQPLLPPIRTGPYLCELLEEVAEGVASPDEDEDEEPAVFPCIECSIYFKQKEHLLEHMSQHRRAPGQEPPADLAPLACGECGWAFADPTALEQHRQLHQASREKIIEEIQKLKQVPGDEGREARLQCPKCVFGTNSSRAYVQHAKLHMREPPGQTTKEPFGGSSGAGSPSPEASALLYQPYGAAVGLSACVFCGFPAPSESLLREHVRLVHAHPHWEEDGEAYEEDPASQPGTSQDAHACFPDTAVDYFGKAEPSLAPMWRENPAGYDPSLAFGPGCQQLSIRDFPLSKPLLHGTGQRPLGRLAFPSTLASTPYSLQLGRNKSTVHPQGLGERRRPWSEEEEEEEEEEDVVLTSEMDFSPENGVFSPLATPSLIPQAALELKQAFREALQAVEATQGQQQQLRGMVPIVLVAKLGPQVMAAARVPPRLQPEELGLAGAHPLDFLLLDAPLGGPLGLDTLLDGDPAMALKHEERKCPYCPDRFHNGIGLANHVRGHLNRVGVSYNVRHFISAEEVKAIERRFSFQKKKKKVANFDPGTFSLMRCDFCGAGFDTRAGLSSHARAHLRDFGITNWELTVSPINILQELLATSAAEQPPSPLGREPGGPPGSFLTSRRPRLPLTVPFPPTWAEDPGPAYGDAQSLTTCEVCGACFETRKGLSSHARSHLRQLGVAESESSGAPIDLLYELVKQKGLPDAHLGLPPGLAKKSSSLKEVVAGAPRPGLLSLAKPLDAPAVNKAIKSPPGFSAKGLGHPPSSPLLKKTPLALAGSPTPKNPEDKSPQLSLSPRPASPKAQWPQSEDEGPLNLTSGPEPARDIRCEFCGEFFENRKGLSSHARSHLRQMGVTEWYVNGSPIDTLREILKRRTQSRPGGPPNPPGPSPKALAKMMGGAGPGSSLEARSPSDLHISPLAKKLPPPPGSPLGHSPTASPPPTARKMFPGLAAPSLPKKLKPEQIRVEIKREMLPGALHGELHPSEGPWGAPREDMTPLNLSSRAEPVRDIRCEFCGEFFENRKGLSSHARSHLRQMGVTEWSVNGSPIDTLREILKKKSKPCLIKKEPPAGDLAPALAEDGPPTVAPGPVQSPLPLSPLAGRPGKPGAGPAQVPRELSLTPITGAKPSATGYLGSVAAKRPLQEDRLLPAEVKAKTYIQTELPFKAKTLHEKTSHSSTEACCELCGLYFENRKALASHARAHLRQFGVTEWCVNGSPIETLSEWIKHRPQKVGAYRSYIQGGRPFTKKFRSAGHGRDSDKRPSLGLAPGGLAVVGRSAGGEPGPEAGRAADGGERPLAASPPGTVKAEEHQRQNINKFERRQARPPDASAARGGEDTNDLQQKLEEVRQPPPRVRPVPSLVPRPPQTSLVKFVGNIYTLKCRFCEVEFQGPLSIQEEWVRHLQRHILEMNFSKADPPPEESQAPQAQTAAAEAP
UniProt O14579: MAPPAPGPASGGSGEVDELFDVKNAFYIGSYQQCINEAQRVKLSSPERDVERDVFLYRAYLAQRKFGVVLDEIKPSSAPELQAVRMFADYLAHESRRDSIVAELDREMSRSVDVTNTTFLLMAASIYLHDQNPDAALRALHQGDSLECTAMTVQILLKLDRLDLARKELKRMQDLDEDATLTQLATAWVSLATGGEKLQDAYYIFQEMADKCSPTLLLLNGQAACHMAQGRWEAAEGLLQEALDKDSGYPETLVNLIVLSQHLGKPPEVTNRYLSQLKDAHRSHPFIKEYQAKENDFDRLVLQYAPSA
UniProt O43310: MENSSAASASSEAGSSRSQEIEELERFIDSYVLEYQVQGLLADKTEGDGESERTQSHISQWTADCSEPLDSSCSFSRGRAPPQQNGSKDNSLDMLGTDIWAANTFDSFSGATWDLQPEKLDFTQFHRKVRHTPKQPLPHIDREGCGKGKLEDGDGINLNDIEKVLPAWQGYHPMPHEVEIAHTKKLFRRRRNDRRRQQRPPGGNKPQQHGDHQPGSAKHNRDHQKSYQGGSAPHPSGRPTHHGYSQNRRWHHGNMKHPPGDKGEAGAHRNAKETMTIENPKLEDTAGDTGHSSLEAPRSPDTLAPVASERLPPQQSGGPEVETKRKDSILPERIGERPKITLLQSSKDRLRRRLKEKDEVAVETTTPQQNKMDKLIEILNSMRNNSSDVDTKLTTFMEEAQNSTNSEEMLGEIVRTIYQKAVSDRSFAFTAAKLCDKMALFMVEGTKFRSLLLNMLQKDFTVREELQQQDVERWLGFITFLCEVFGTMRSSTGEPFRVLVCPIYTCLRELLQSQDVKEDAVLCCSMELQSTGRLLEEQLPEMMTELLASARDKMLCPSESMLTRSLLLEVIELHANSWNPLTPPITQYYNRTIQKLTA
UniProt O60264, whole entry: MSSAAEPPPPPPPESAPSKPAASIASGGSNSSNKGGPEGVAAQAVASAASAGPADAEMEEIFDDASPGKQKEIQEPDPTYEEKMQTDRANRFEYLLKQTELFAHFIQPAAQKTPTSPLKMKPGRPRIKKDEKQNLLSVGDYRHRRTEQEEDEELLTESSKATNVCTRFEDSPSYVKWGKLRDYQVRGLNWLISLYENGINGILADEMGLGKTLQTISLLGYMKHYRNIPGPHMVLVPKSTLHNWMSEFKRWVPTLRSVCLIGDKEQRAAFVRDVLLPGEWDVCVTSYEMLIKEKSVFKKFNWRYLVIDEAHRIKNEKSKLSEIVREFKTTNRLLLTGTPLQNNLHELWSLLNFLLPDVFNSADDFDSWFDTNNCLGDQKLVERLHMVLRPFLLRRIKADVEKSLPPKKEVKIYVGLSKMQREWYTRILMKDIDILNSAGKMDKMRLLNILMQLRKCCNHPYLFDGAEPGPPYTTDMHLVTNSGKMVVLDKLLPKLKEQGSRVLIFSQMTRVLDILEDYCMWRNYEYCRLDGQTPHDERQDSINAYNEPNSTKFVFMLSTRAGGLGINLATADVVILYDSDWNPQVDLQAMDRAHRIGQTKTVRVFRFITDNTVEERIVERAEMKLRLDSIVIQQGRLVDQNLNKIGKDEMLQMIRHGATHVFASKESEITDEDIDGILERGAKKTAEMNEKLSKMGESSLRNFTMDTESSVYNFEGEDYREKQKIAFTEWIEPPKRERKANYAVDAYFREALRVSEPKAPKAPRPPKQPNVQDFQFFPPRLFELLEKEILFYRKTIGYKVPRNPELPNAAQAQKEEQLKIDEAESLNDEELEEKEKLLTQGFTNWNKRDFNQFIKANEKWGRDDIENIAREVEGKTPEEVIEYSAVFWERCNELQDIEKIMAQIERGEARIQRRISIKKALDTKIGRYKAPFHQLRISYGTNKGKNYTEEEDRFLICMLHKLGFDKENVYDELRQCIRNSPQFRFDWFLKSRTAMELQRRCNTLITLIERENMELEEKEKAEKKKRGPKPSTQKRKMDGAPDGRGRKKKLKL

± gives the standard deviation of the averaged measurements. This is one part of the list.

Consider SH3BP5 (UniProt O60239), for which the NP40-soluble protein abundance reads like this: (concentration: 0.1mM) 0.948 ± 0.086; (concentration: 0.5mM) 1.02 ± 0.05; (concentration: 1mM) 0.93 ± 0.043; (concentration: 2mM) 0.951 ± 0.035; (concentration: 4mM) 0.938 ± 0.064; (concentration: 6mM) 1.02 ± 0.049. For the same target, the NP40-soluble protein abundance reads like this: (concentration: 8mM) 0.927 ± 0.057; (concentration: 10mM) 0.985 ± 0.049.

Regarding “M0QXA7 and related entries (UniProt O95785)”, the NP40-soluble protein abundance reads like this: (concentration: 0.1mM) 1.08 ± 0.031; (concentration: 0.5mM) 1.06 ± 0.039; (concentration: 1mM) 1.07 ± 0.033; (concentration: 2mM) 1.06 ± 0.077; (concentration: 4mM) 1.11 ± 0.043; (concentration: 6mM) 1.11 ± 0.024. Also, the NP40-soluble protein abundance was found to be 1.21 ± 0.057 (concentration: 8mM) and 1.18 ± 0.036 (concentration: 10mM).

Take “M0QXB4 and related entries (UniProt O14579)”: the NP40-soluble protein abundance reads like this: (concentration: 0.1mM) 1.01 ± 0.049; (concentration: 0.5mM) 0.968 ± 0.04; (concentration: 1mM) 1.07 ± 0.075; (concentration: 2mM) 1.05 ± 0.055; (concentration: 4mM) 1.09 ± 0.081; (concentration: 6mM) 1.02 ± 0.059. Moreover, the NP40-soluble protein abundance (concentration: 8mM) turned out to be 1.04 ± 0.056 and the NP40-soluble protein abundance (concentration: 10mM) is 1.02 ± 0.038.

Regarding UniProt O43310, the NP40-soluble protein abundance was determined as 0.958 ± 0.092 (concentration: 0.1mM); 1.03 ± 0.1 (concentration: 0.5mM); 1.02 ± 0.25 (concentration: 1mM); 1.03 ± 0.18 (concentration: 2mM); 0.998 ± 0.14 (concentration: 4mM); 0.988 ± 0.17 (concentration: 6mM). Besides, the NP40-soluble protein abundance by setting is: (concentration: 8mM) 1 ± 0.14; (concentration: 10mM) 1.02 ± 0.11.

For the target SMARCA5 (UniProt O60264), the NP40-soluble protein abundance was found to be 1.06 ± 0.0097 (concentration: 0.1mM); 1.07 ± 0.046 (concentration: 0.5mM); 1.06 ± 0.039 (concentration: 1mM); 1.07 ± 0.058 (concentration: 2mM); 1.14 ± 0.066 (concentration: 4mM); 1.12 ± 0.1 (concentration: 6mM). The NP40-soluble protein abundance reads like this: (concentration: 8mM) 1.18 ± 0.099; (concentration: 10mM) 1.17 ± 0.084.

The values above are taken from the supplement of paper PMC6411743.
